Reference: patent US20060128708A1, “Antagonizing an adenosine A2A receptor to ameliorate one or more components of addictive behavior” (priority 2004, published 2006)

Tested on: Male Long Evans rats
Assay: Ethanol operant self-administration in rats (30 min FR3 session, 10% EtOH)
Type: in vivo, rat
Conditions: mean ± SEM
Description: Separate groups of rats were given the D2 antagonist eticlopride (0.005, 0.007, 0.01 mg/kg), the A2A antagonist DMPX (1, 3, 5, 7, 10 and 20 mg/kg) and the Al antagonist DPCPX (0.125, 0.25, 0.5 mg/kg) by systemic injections.
Male Long Evans rats (Harlan, Indianapolis, Ind.) weighing approximately 250 g at the beginning of the studies, were individually housed with food and water available ad libitum except when stated otherwise. They were maintained on a 12 h light/dark cycle, lights on at 7:00 am. Operant training occurred between 8:30 am and 2:00 pm. The experimental procedures were approved in advance by our Institutional Animal Care and Use Committee.
EtOH dilution (10% v/v) for self-administration was made up using 95% ethyl alcohol and tap water. Sucrose (Saccharose, Fisher Scientific, Fair Lawn, N.J., USA) solution (10% w/v) was made up with tap water. All the compounds tested were obtained from Sigma Chemical Co. (St. Louis, Mo.). The A2A antagonist DMPX (3,7-Dimethyl-1-propargylxanthine) was dissolved in warm saline. The A1 antagonist DPCPX (8-Cyclopentyl-1,3-dipropylxanthine) was dissolved in 20:80 v/v mixture of Alkamuls EL-620 (Rhodia Inc., Cranbury, N.J., USA) and phosphate buffered saline. The D2 antagonist, eticlopride, was dissolved in saline. Drugs were administered in a 1 ml/kg volume except for the group tested with 5, 7 and 20 mg/kg DMPX, in which the injection volume was 2 ml/kg as the highest DMPX soluble concentration achieved was 10 mg/ml. Drugs were prepared fresh every treatment day.
EtOH operant self-administration was carried out in standard operant chambers (Med Associates, Georgia, Vt.) housed in sound-attenuated cubicles. Each chamber (33×30.5×33 cm) contained two retractable levers against the right wall, 7 cm from the floor and 1 cm from the right or left edge of the right wall, respectively. One recessed dish positioned at 2.5 cm above floor level and 6 cm from the levers towards the center of the chamber was the reinforcer receptacle. Fluid (0.1 ml) was delivered from syringe pumps upon activation of 1 of the 2 retractable response levers. A 3 sec tone was activated upon lever pressing. […] The beginning of a training session was signaled by the onset of the house light located in the center of the wall facing the levers, at 27.2 cm above the floor. A computer controlled stimulus and fluid delivery and recorded operant responses.
Before the beginning of EtOH operant self-administration, rats were exposed to a 10% EtOH (1OE) solution as the only liquid source in their home cages for 4 days. For the next 14 days, animals were allowed free choice between 10E in tap water or tap water from graded glass tubes. At the end of this 14-day period, operant self-administration was initiated according to the sucrose fading technique (Samson, 1986) with minor modifications. Rats were restricted to 30 minutes of water per day for 2 consecutive days. On the night of the second day of water restriction, rats were placed in the operant chambers for a 12-15 hrs overnight session on an FR1 schedule (1 reinforcement of 0.1 ml per lever press) with 10% sucrose (10S) as reinforcer and both levers active. The next day, rats began the operant self-administration training. Animals were kept on water restriction for the next 4-5 days during which they received one 45 min session per day on an FR1 schedule with 10S as reinforcer and one active lever. They were then given free water in their home cages for the remainder of the experiment and were trained for 2-3 more of the above described sessions. The next day, sessions were shortened to 30 minutes and the ratio of responding was increased to FR3. EtOH was added to the sweet solution (10S10E) and rats received 3-4 sessions of this solution, followed by at least 20 sessions with 10E only. A minimum average of 0.3 g/kg EtOH consumption in 8 sessions prior to the beginning of any drug treatment was required. […]

CCCn1c(=O)c2[nH]c(C3CCCC3)nc2n(CCC)c1=O [DPCPX, 8-Cyclopentyl-1,3-dipropylxanthine]
number of inactive lever presses (DPCPX 0.125 mg/kg ip 15 min prior to session): 1.78 ± 0.62
number of inactive lever presses (DPCPX 0.25 mg/kg ip 15 min prior to session): 2.36 ± 1.08
number of inactive lever presses (DPCPX 0.5 mg/kg ip 15 min prior to session): 2.86 ± 0.88

CCc1cc(Cl)c(OC)c(C(=O)NC[C@@H]2CCCN2CC)c1O [eticlopride]
number of inactive lever presses (eticlopride 0.005 mg/kg sc 25 min prior to session): 2.00 ± 0.58
number of inactive lever presses (eticlopride 0.007 mg/kg sc 25 min prior to session): 1.00 ± 0.41
number of inactive lever presses (eticlopride 0.01 mg/kg sc 25 min prior to session): 1.83 ± 0.98

C#CCn1c(=O)c2c(ncn2C)n(C)c1=O [DMPX, 3,7-Dimethyl-1-propargylxanthine]
number of inactive lever presses (DMPX 1 mg/kg ip 20 min prior to 30 min FR3 session): 2.60 ± 0.85
number of inactive lever presses (DMPX 3 mg/kg ip 20 min prior to 30 min FR3 session): 1.50 ± 0.37
number of inactive lever presses (DMPX 5 mg/kg ip 20 min prior to 30 min FR3 session): 3.56 ± 1.29
number of inactive lever presses (DMPX 7 mg/kg ip 20 min prior to 30 min FR3 session): 3.93 ± 2.17
number of inactive lever presses (DMPX 10 mg/kg ip 20 min prior to 30 min FR3 session): 3.60 ± 1.76
number of inactive lever presses (DMPX 20 mg/kg ip 20 min prior to 30 min FR3 session): 3.87 ± 0.64
